Measurements reported in publication PMC8964110.
No constants are given. Whether binding was seen depends on the method and setting. In cells and extracts the contact can be indirect. These calls come from enrichment with a bait or labelling near it, and not all partners need be listed. Sequences can lack the tags named with a protein.

Biological target: EhVps23 (E. histolytica (endogenous in HM1:IMSS trophozoites))
Assay: affinity purification with mass spectrometry; immunoprecipitation with α-EhVps23 antibody and protein G-agarose from trophozoite lysates (10 mM Tris-HCl, 50 mM NaCl, protease inhibitors, freeze-thawing; pre-cleared with Protein-G, 2 h at 4°C); precipitate separated by gel electrophoresis, LC-ESI-HDMSE

| Binder | binding |
| --- | --- |
| Phosphoglucomutase (protein, UniProt O15820 1-553) MQATIKRYPTSPISGQTLGTSGLRKRASEVENTPNYLENFVNAMFNAASNLQKPGKIIIGGDGRYLNLKALDIIIRVALSRGFTDIVVGKSGFMSTPAESATIIRRKAEAGFIMTASHNPAGKEHGDFGLKLNMSNGGPAPIEVTSKIEESARNIKEIVIAELNKPLNIDSVGDIEIECEGKKAVVHVIDPLEDYIAYLHECFDFENLKQFVSKYHLKVQVDGFNAVTGIYNKKVFCELLGLPESSLKNAIPMPDFGGKHPDPNLTYAAELVHAVIPEDSPYDIGFAFDGDGDRNLIVGRGAFVSPSDSLAILSTKYNDIPFFVKNGFKGVARSMPTSAAVDHVTSITETPTGWKFFGNLMDSGKISLCGEESFGTGCCGIREKDGIWAALCWVSILAAESERAQRLVGVKEILESHWAKYGRNYYQRYDFDEVDKKAAEDMMQMMRDNAKTVKCDLNGVPLKFCDDFEYHDSVDGSVTSKQGIRFVFEDGSRIIFRLSGTGSVGATIRVYFDKYSKDYKADQTKVLADMVTVAYAVSQITKFTGREKPSVVT | binds |
| NAD(FAD)-dependent dehydrogenase (protein, UniProt C4M6H3 1-1066) MSSYDIVIIGAGCTGACCAMELSKYKNLKIALLEKARDVSTGATSANSGIVHCGIDTTLETLKGRLVVRGNTLIHELQPKLNFGLTTCGELMVAKTDEEIPNLNKYMEIAKTKNVPVELWDYEKIHKEEPNLSENIKKAIYCPTTSVLDPYEFTIATCLTAKANGVHIYTSTTVNGIKKIDNGYEVVCENGKKFIAKVLLNCAGVFASQVSEMLYPADFHITARKGEEYLLDRKLQGMVKHVIFPCPTGVTKGTLIIPTVDGTIMVGPNADIQDSYTDATTTSEGLKKVFDLAKLLVPTINNMDVISAFAGLRPAIIEHNDFVIRENEKFPCFIEVVGIQSPGLTASPAIAEYTKNIFIEAVKKSHPEIVLEEKSDFKYVPLSKKFRNMNDSERAEAAKKDAAYSKIVCVCEKVTEGDVNAAIDEGARTVDAIKLRTRAGMGRCQGSYCTPRVMEILSKRLNIPMTAVAKNYPGSEIAPYIAGGEEKKLTEEYPSWETIPNPHITKPCNGETIERKEFDIVVVGGGPSGLAAAKAALETKKDLKVAVIERMERVGGVLLQCIHSGFGLGRYGEELTGPEYAYRLGEETEAAGAVLMVNTYVTDVENKGEEYVVKAVVYGTAPVEIHAKKCIFTVGCRERSRFGIKVAGTRCAGVMTAGLAQALVNYKGILPGKKVVIQGSGDIGLIMARRMALEGAKVLGVYEILPKISGLQRNVVQCCKDFNIPIHLSEVVTRINGYPRITSVIMTKCDPKTLAPIAGTEYEIECDCLLLSVGLIPLPDLTQQAGHNVQLNPRTRGPIVDGFRCVEKGIYAAGNQLHVHDLADEASNEGAIAGEAAALSLGGEKEAIKVIPAPELLYCVPERVVISDKKQKLSFRFRQDFGSAHVIAKIGETIIGEEEIEHAIPAEMGHVWVIPKDCQIGQEVTLTVIPKAHEEVTEQKEGEIVKHMNCIVCPRGCPIEVKIDAKSNEITSIKGNSCPRGAAYVRQEHIEPFRVFSTTLPVEGGNLIRVPVKLTKPVPRSKIFEVMEIIHKQSPIKAPINKGQVLVKIPKMTDIVACYPVVALEE | binds |
| Seryl-tRNA synthetase (protein, UniProt C4LV24 1-453) MGLDINLFRNQPDVIKESQKKRGASVEIVDEILALDNEWKKEGFTLDQTRKELGKIQKELGMLHKNKENPPTKEVLAEYDVKKKACESKIAELEKSVSELKVKIDAKIKSVGNIVPDSVPVEMDEKFNKIEVTYGECTPKLYHHHELIHMIGGADTERAVKVAGHRGYYLKGWGFKLNQALINYGTNFLEQRGFTPIQTPYFMRRELMAKTAQLSDFDETLYHVGTGKDVELDDQKYLIATSEQPLTALHAGEWILPKQLPIRYMGFSTNFRKEAGAHGKDTWGIFRVHQFEKIEQFCMTLPDKSWEMHEEMIKNSRDFFESLKIPYRVVNIVSGALNNAAAKKYDLEGYFPGFNEYRELVSCSNCTDYQSRELEVRLQTDKKDKTKSYVHMLNSTLCATERALCCILENYQCEDGIIVPEVLRPYVGGVEKIPFIAPKPVWAKEEKKSTKKN | binds |
| Epimerase domain-containing protein (protein, UniProt C4M882 1-365) MKALVLGGTGFVGRNLVKMLVDSNEYSFIRSVDKVFPETAYLSKEHASVYDNPEKCVFVQGNLVNASSVSKMFSIEGGFDVVFDCAAETKLGQEEFMYEQKTYGLTKLVAEEAVKQKVKRFVHLSNAQVYDSSSKPKDEKAKIKPWTKLAASQAKADELLIGMKELPFVILRPAIIYGPGDVTGIAPRIICAAVYKYTKKKMEFLWTGDMKLNTVHVHDVCKAMMLCGKVDGPIKNGEIYNLCDKNDTNQKKINTILEEIFQIKTGFKGTIISTAAEKLGMDGVCETVNDEHMKPWSQLCKEENLIGTPLSPYLDQELLYNNPYCIDGSSIEKKGFVYDYPEVTTELVKEEIKYFSDQKLFPSYA | binds |
| Galactokinase (protein, UniProt C4LYJ7 1-389) MVSLEDIKSFHAKTYCTEPEHVGFAPGRVNIIGEHTDYNDGYVLPVAIKQGTYVSVSTKPSTVTKMNFISSIDNKLVSIERQSKEKILEKYKGKWFMYVYGVIDKLLTKIQSEPKEYSICVMGDVPLGSGLSSSASIEVATGITFLKVLNIEMTGIELGLLAVDVEHEYTGVMCGIMDQFASRLCKKNTALLLDCKTHQTINEPVVLGDCLIMITNSNAPHKLESSQYNERVKQCQEAVRQLNEHYHKNEKFLRGFTVDEVQILTGIIGNRAKHVVNENDRVIKAIAAMKVGNVEELGKLMTESHMSLRNLFEVSSEELDYLVDNALKINGVFGSRLTGAGFGGCTVTLLKPSAVDEYKKMLEVYKEKFNLHPFCFILNQPEDGAHLIF | binds |
| Fructose-1,6-bisphosphate aldolase (protein, UniProt C4LXD7 1-330) MAAKTVNYKELGLCNHKEMFEHAIKGGFAVPGFNFNNLEQMQAIIQACTEAKSPVILQVSKGAREYANATLLRNLAKGAVEYSKEIDPEHKGVPISLNLDHGANFQICKECVDNGFSNVMIDGSALPYEENVKLTKQVVEYAHKFGVTVEGELGVLSGVEDDVAAAEHVFTDPKDVEAFVKDTGVDALAISIGTSHGAYKFKPGMHPRIRLDILHEVEKRIPGFPIVLHGSSSVPQEWVAVINQYGGKLESAIGIPEDQIREAVKSAVCKVNIDSDGRLAMTGSIRRYLAEHPKDFDPRQYLGPARQALKELYLHKVSDKVLNSAGKSWY | binds |
| Alpha-1,4 glucan phosphorylase (protein, UniProt C4LWJ2 1-884) MQKSSSSEGVSHVRRSISLNKLKNQFADAAEAEHFTNESDSEKYNNLWDYCSLYLSKDVETIKQQIANHIEYTLACQRFDFKTKSLFTATAISLRERMTEYWNDTHQYFREIQTKRMYYLSIEYLIGRSLMNAICNLGLENEYRDVVSQFGSSLEELYEYENDAALGSGGLGRLAACFLDSLATMNLPAWGYGIRYQYGMFKQQISHGYQIETPEYWLEAGNPWEIVRKDVNHEVRFGGYVTVDKATGRMKWEGGNTVRAIAYDMPVPGYKTLNTLNLRLWSSKPSNQFDLEHFNKEEDIDYWQKVHNQQKDENICKVLYPNSSHYKGQELRLKQQFFFTSASLQDIVRRFKKMRIAMNEFPQYVAIQLNDTHPTVGVLELMRILLDIEGLEWNQAWEIVVQTFAYTNHTVLPEALETWPVPMFENLLPRHLQICYEINSRFLSWVKTAHNCTEQEIAALSIIEESNPKRIRMANLAIIGSHTVNGVAAIHSQIIKDVIFRQFSKIWPHKFINVTNGVTPRRWMLQCNPGLSKLITETLKSDEWVVELSLLEGLRSLCDHSLEEKFRAVKTQNKERLIRLVSKITDGEIVLNSSYLFDVMIKRIHEYKRQSLAILGTIAQYLALKKMTPEERAQQVPRVKIFAGKAATSYENAKIIIKLINSVADIVNNDKTIDNMLKIVFIPNYSVSLAEVIIPANDINEQISTAGYEASGTSCMKFCMNGGLIIGTWDGANVEIAEEIGEENMFMFGAKKNEVELIRQQGTSYIDERLYDVLKAISGGMFGAADWFNKLIGQFWGGNDYYLVAHDFASYLEAQMKVDATWKKPQEWNHKCVMCVSKMGKFSSDRSMKEYAANVWNIHPCPLPETDMNDMMDIAKKQLLPEKK | binds |
| MHD domain-containing protein (protein, UniProt B1N355 1-414) MISAIFFMNAKGDLLISRIYRDDVMKGVASAFRSYVLTEKNVLPVKIVGSTVFYHIRVNSLYIVALARSNNNAAVVFEVLHKIVEVFQAYFSTIDENTIKSQYVLIYELLDEILDFGYPQFCTKDELQSLITFGKAKAVQRGNIAIQATGQIPWRSPDIFYKKNQLFLDVIESVNLTVSAKGTILSNDVNGVIKMRTQLSGMPDCSLGMNDKALLLGDSAQKKSIQLADVTFHQCVRLTRFDQDRSINFIPPDGDFDLMKYRTTDNISQQFRLLHNIKESSKTHLSLDINVRALFSELQYGENVRIKIPVPKNAALCKTRCTAGSAKYHPEHAAILWRISRFNGKTQQTITVDVDLVQTTQSQRWDKPPILMDFVIPALTATGLQIRYLKIASDYKTIKWVRYITKAGAIQYRL | binds |
| Enhancer binding protein-1 (protein, UniProt C4M5C4 1-306) MTTLYVSHLDYSLKVEDVQNAFKTYNPKEVKIISTPIGYSRGFAFIEFATPQEAEKALEMDRHTIGKMEIKVQKALPKEETTTERKMNRRGFKGKRNTRKRHLVKRTNEVTDNMLFIKNLPFAITEEKLKEMFSKFGVVEITLIKTHRKKGNVTKNNGIAFITVKTAEEQKKAIAEMNNFEVEGRKITVAAAYKKVENKQTTKKTNEPKSLSETNVFVKNLPFTLTDEGFKKLFEKYDVVEATIVKRHNKKLNVDRSKGYGFVTFKTAEQQKKAIAEMDNFEVEGRKITVTSAYQRAEKKEETTSN | binds |
| Rho family GTPase (EHI_070730) (protein, UniProt Q24816 1-194) MSEKPTSIKLVVVGDGAVGKTCLLISYSIRKFPEDYIPTVFDNYVVSLTAGTRQIQLALWDTAGQEEYDQLRPLSYSSASIFLICFSVTSSVSYDNVITKWHPEVIHFAPKVPIILVGTKLDTRNDPAIVKRLTEQGMTVINTAKGEELKNRIKAVKYIECSAKTSENLKTVFDEAVKTVLMNKPQQRSKCALL | binds |
| Uncharacterized protein (EHI_118750) (protein, UniProt C4LYM3 1-135) MATEQEAMALMGSIDVPNGQWVVYEVKNKQLVFRTSGNGVDSLRDELKDDEACFALINLRCTLEGIPDQARGIFIDWKGPKCKGIAKVRVREFKDQALEVLMPHHGELEAVGKTEFTEDIILKRWAMNSGSHVIN | binds |
| Long-chain-fatty-acid--CoA ligase (protein, UniProt C4M7S1 1-658) MKKQSYDSTFTKKEGNKFYFLNQTEHWSAGEKDDIEYMTQHTTYEVIKRRCEKNPENDFFGYRKREGKKYIGEYIWLKNKEVLEMTDSLASGIMNKYHLKKGDSCGIISGNRYEWYLTQFALQRHGIIPVPLYTTLGKEAIDYIISTLSITLVFCTFSDTVAEMCERNPKITLVCFDTFEDIMNHINPSISYVTFDRLIKEGKSNLIEPQLPTMDDTFSIIFTSGTSGIPKGAVHSFNSASYGSCTINSAELFKDSPMKEQTYFSYLPSAHVLDQEVTHGFIYGGGRIGFISGGIPTLIEDLSKCQPTFFIAVPRVLQKIYDKFNETYNQLGYFSQTLFNIGYYYKLNAVKNKSWNYINWDNIVFYKIHQVFGGKLKYILNGGAPLTEELYEWLRVCSGAIILQGYGLTETFGGICCSLPYMTDLNILNVGSCGPNVEIRLVSVPEMNYTIDDEYPSGEIEIRSKQNFICYYKNEEATKAAINDDGFFATGDIGKVCPDGSLAIIDRKKNLFKLAQGEYIAVEPLENKYCAMPLISQCFIYGESSDVFITAIIVLDFDELKRIASSITTESEKDSLLNIHYLNKIDIKKKILQIIQNYIKTQHVPGYEIIKNVYFETEHFSTENDLMTPSFKLKRPQLKRKYLTILKQLRTEIQNNLI | binds |
